Measurements taken from patent publication US10105400B2, “Composition of chicken liver hydrolysates and method for improving alcohol metabolism, as well as preventing and treating liver fibrosis” (NATIONAL TAIWAN UNIVERSITY, priority 2016, dated 2018).

Assay: Body weight and feed efficiency, thioacetamide (TAA) liver fibrosis model
Format: in vivo, Wistar rats
Details: CNS group: 200 mg/kg-bw carnosine oral gavage daily, 10 weeks, TAA 100 mg/kg-bw i.p.
Protocol: Forty male Wistar rats of 5-week old were purchased from BioLASCO Taiwan Co., Ltd. (Taipei, Taiwan). Two rats were housed in one cage in an animal room at 22±2° C. with a 12/12 h light-dark cycle. After one week of acclimation, the mice were randomly divided into 5 groups:
(a) The control group (The CON group): intraperitoneal injection of 0.3 mL normal saline, and administration of 0.5 mL ddH2O by oral gavage;
(b) The thioacetamide group (The TAA group): intraperitoneal injection of 100 mg TAA/kg-body weight (bw) in 0.3 mL ddH2O and administration of 0.5 mL ddH2O by oral gavage;
(c) The composition of the chicken liver hydrolysates with low dosage (The CLH-L group): intraperitoneal injection of 100 mg TAA/kg-bw in 0.3 mL ddH2O and administration of 200 mg/kg-bw CLH in 0.5 mL ddH2O by oral gavage; […]
The experiment was conducted by a complete randomized design. The raw data was expressed as “mean±SEM”. The data was analyzed by analysis of variance (ANOVA) and Fisher's Least Significant Different (LSD) test was used to distinguish significant differences among groups. […]

NCCC(=O)N[C@@H](Cc1cnc[nH]1)C(=O)O [CNS, carnosine]
Food intake: 28.43 ± 0.50^ab g/rat/day | Water intake: 44.70 ± 4.68^a mL/rat/day
